Test [1] addresses polypyrimidine tract binding protein 1 (PTBP1) (human (endogenous in DU145 and PC-3)) (UniProt P26599). Briefly: co-IP; lysates of prostate cancer cells, anti-PTBP1 or anti-RALY antibody, magnetic protein A/G beads, western blot. Background: Immunoblotting shows a protein as a band on a membrane.
In test [2] the target is heterogeneous nuclear ribonucleoproteins (hnRNP) associated with lethal yellow protein homolog (RALY) (human (endogenous in DU145 and PC-3)) (UniProt Q9UKM9). Described as above.

The chains behind the UniProt entries cited, without tags or fusion partners.
UniProt P26599: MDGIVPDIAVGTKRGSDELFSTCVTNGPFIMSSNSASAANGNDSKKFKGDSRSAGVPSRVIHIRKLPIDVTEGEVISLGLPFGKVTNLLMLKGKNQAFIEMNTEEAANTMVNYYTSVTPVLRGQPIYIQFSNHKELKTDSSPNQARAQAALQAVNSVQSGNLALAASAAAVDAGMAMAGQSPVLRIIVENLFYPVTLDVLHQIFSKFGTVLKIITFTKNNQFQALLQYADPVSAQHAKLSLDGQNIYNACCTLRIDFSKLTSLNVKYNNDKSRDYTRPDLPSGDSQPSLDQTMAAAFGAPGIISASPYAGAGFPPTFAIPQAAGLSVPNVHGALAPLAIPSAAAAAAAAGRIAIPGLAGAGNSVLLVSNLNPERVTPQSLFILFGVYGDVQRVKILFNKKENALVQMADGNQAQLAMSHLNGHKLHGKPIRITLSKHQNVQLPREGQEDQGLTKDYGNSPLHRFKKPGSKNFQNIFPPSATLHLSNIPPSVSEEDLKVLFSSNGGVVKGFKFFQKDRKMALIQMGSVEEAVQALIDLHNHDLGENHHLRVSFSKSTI
UniProt Q9UKM9: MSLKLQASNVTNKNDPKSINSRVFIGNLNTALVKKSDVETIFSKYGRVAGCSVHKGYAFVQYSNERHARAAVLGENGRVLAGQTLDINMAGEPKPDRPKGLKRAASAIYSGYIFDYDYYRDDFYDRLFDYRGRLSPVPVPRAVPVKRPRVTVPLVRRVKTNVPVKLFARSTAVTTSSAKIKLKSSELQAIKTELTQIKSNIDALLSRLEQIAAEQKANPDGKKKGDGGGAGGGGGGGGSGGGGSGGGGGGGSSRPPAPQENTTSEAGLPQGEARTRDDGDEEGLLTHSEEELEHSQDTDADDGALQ

These are yes or no findings as the source states them, for the method shown. Binding seen in cells or lysates may run through a third protein. Some results given as binding are weak or reduced against the parent protein; the word gives no strength.

Consider two substances from PMC11558147.

As to “heterogeneous nuclear ribonucleoproteins (hnRNP) associated with lethal yellow protein homolog (RALY) (from UniProt Q9UKM9 1-306)”, the binding entry in test [1] is recorded as “binds”. Take “polypyrimidine tract binding protein 1 (PTBP1) (from UniProt P26599 1-557)”: the binding result in test [2] is listed as “binds”.
